In patent US20210348124A1, “SEBACEOUS GLAND ORGANOIDS AND USE THEREOF” (TECHNION RESEARCH & DEVELOPMENT FOUNDATION LIMITED, priority 2018, published 2021):
For at least one compound, name, drawing or mass did not settle the structure.

Tested on: SG organoids
Assay: Acne vulgaris model: DHT, BRL, LIN administered to SG organoids (size, ORO, Ki67)
Format: cell-based, mouse
Settings: administration to organoids (single agents for 7 days; combinations)
Procedure: Therefore, as a first step, the potent dihydrotestosterone (DHT) androgen, the PPAR-γ BRL-49653 (BRL) activator and linoleic acid (LIN) known to activate PPAR-B38 were administered to organoids.

## CN(CCOc1ccc(CC2SC(=O)NC2=O)cc1)c1ccccn1 (stereo not shown) [BRL]
  size of individual SG organoids: significantly increased
